Measured values: PubChem BioAssay AID504444 (National Center for Advancing Translational Sciences (NCATS), 2011)
The whole screen tested about 360,000 compounds, of which about 7,500 (2.1%) were called active. The inconclusive results got no clear call from the source; some entries with a clear call stand among them for comparison. The call rests on the fitted dose curve; in most records, active means well fitted inhibition curve with a large enough effect; inconclusive means small, poorly fitted or top-dose-only effect, or effect the other way; inactive means flat fitted curve, though single readings scatter. A potency beside an inconclusive call is a rough fit, not a confirmed value.

Assay: Nrf2 qHTS screen for inhibitors; further: nearly all actives have a fitted effect of over 60% in size
Details: A549 ARE-Fluc reporter, luciferase luminescence, 18-24 h; activity change, negative = inhibition: at 46 µM (top of the series)
In short: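 Cells were seeded and rested 2 h, then exposed to compounds for 18-24 h. CellTiter-Fluor was read first as a viability measure. BugLite was added 15 min before the final luminescent read of ARE-luciferase activity in A549 cells.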
On the % scale 0 is the no-effect control and ±100 the full control effect; potency means the concentration at half of the fitted maximal effect.

| Compound | Potency | activity change, negative = inhibition |
| --- | --- | --- |
| Fc1ccc(OCc2nc3ccccc3s2)cc1 | inconclusive: 11.6 µM [activator, partial curve, poor fit] | – |
| CN(c1cccc(NS(=O)(=O)c2cccc([N+](=O)[O-])c2)c1)S(C)(=O)=O | inconclusive: 1.84 µM [falling, partial curve, poor fit] | – |
| COc1ccc(OC)c(-c2nc(CN3CCN(C(=O)c4ccco4)CC3)c(C)o2)c1 | – | inactive: -21.3% |
| CC(C)c1ccc(C(=O)Nc2ccc(CN3CCOCC3)cc2)cc1 | inconclusive: 18.4 µM [activator, single point] | – |
| Cc1ccc2cc(CN(C(=O)c3cccc(Cl)c3)c3ccccc3)c(=O)[nH]c2c1 | inconclusive: 29.1 µM [falling, single point] | – |
| CCCSCCCNC(=O)c1ccc2c(c1)sc1nc(-c3ccc(OCC)cc3)cn12 | – | inactive: 2.91% |
| CCN(CC)S(=O)(=O)c1ccc(C)c(NC(=O)Cn2cnc3cc([N+](=O)[O-])ccc3c2=O)c1 | inconclusive: 7.31 µM [falling, partial curve] | – |
| COc1cccc(-c2ncc3ccccn23)c1 | inconclusive: 3.66 µM [activator, partial curve] | – |
| COc1ccc(OCC(=O)NNc2c3ccccc3nc3ccccc23)cc1 | active: 20.6 µM | – |
| O=C(Cc1c(C(=O)O)[nH]c2ccccc12)NCCN1CCN(c2ccccc2F)CC1 | inconclusive: 29.1 µM [activator, partial curve, poor fit] | – |
| O=C(CCCOc1ccc(Br)cc1)Nc1ccc(S(=O)(=O)N2CCOCC2)cc1 | active: 14.6 µM | – |
| CC(C)(C)c1cc(NS(=O)(=O)c2ccc3c(c2)OCCO3)on1 | inconclusive: 18.4 µM [falling, partial curve, poor fit] | – |
| Cc1cccc(NS(=O)(=O)c2ccc(C3CCCCC3)cc2)c1 | inconclusive: 23.1 µM [falling, single point] | – |
| Cc1ccc2nc(-c3cccc(NC(=O)c4cccc5ccccc45)c3)oc2c1 | inconclusive: 4.11 µM [activator, full curve, poor fit] | – |
| CC(C)N(CCCNC(=O)Cn1c(=O)c2cccn2c2ccccc21)Cc1ccccc1 | – | inactive: 3.5% |
| Cc1cc(NC(=O)CSc2nc3c(C)ccc(C)c3cc2C#N)no1 | – | inactive: 1.1% |
| Cc1cccc2c(C(=O)N3CCN(C(=O)c4ccco4)CC3)cc(-c3cccc(Br)c3)nc12 | inconclusive: 29.1 µM [falling, single point] | – |
| COc1ccc(NC(=O)COC(=O)c2cc(=O)c3ccccc3o2)cc1OC | – | inactive: 21.4% |
| OC(CNCC(c1ccc(Cl)cc1Cl)c1c[nH]c2ccccc12)c1ccccc1 (stereo not given) | inconclusive: 29.1 µM [falling, single point] | – |
| Cc1ccc2cc(CN(CCCN3CCOCC3)C(=O)NC3CCCCC3)c(=O)[nH]c2c1C | – | inactive: 17.1% |
| Cc1cccc(N2CCN(C(=O)CCCOc3ccccc3)CC2)c1C | inconclusive: 7.31 µM [activator, partial curve] | – |
| N#Cc1cc2c(nc1SCc1cccnc1)CCCCC2 | inconclusive: 7.31 µM [falling, partial curve, poor fit] | – |

| Compound | Potency | activity change, negative = inhibition |
| --- | --- | --- |
| Cc1ccc(OCc2ccc(-c3nc(C#N)c(NCc4ccccc4Cl)o3)o2)cc1 | inconclusive: 16.4 µM [falling, single point] | – |
| O=C(Nc1ccccc1C(F)(F)F)N1CCC(CN2CCc3ccccc3C2)CC1 | inconclusive: 32.6 µM [activator, single point] | – |
| O=C(NC(=O)c1ccccc1)Nc1ccccc1O | inconclusive: 16.4 µM [activator, partial curve] | – |
| O=C(C1=C[C@H](c2ccc(Br)cc2)C[C@H](OCCCCO)O1)N1CCN(Cc2ccc3c(c2)OCO3)CC1 | inconclusive: 29.1 µM [falling, single point] | – |
| CCOC(=O)N1CCC(NC(=O)c2cc3cc4cc(OC)ccc4nc3o2)CC1 | – | inactive: -20.2% |
| O=C(Cn1c(=O)oc2cc(S(=O)(=O)N3CCCCC3)ccc21)NCc1ccc(Cl)cc1 | inconclusive: 25.9 µM [falling, single point] | – |
| NC(=O)C1Cc2ccccc2CN1C(=O)c1cc(C2CC2)nn1-c1ccccc1 (stereo not given) | inconclusive: 25.9 µM [falling, partial curve, poor fit] | – |
| CC1CCCCC1NC(=O)COC(=O)c1ccc(S(=O)(=O)N2CCOCC2)cc1 (stereo not given) | inconclusive: 16.4 µM [activator, partial curve, poor fit] | – |
| CN(C(=O)c1cccc(NC(=O)Cc2ccc([N+](=O)[O-])cc2)c1)C1CCCCC1 | inconclusive: 29.1 µM [falling, single point] | – |
| Cc1ccc(N/C=C/C(=O)C(C)(C)C)c(O)c1 | inconclusive: 25.9 µM [falling, single point] | – |
| CCOC(=O)N1CCN(CC(=O)Nc2ccc(F)cc2)CC1 | inconclusive: 0.146 µM [falling, full curve, poor fit] | – |
| COc1ccc2c(c1)C=C(CN1CCC(CO)(CCc3ccccc3)CC1)CO2 | – | inactive: 22.4% |
| O=C(Oc1ccc(Cl)cc1)c1cc(-c2ccc3c(c2)OCCO3)on1 | – | inactive: 22.9% |
| Cn1c(/C(C#N)=C/c2ccc(-c3ccc(S(N)(=O)=O)cc3)o2)nc2ccccc21 | inconclusive: 7.31 µM [falling, partial curve, poor fit] | – |
| CCCOc1ccc(C(F)(F)F)cc1NS(=O)(=O)c1ccc(Cl)nc1 | inconclusive: 32.6 µM [falling, partial curve, poor fit] | – |
| CCCCCc1nc2sc3c(c2c(=O)n1NC(=O)c1ccc([N+](=O)[O-])cc1)CC(C)(C)OC3 | inconclusive: 29.1 µM [falling, single point] | – |
| CC(/C=N/NC(=O)c1cc(C(C)C)[nH]n1)=C\c1ccccc1 | inconclusive: 20.6 µM [falling, single point] | – |
| COc1cc(/C=N/NC(=O)c2cc(-c3ccccc3OC(C)C)nc3ccccc23)ccc1O | inconclusive: 5.8 µM [activator, full curve, poor fit] | – |
| CC(=O)Nc1cccc(C(=O)OCC(=O)c2ccc3c(c2)OCO3)c1 | inconclusive: 13 µM [activator, partial curve] | – |
| Cc1nc(N2CCN(C(=O)c3ccco3)CC2)nc2c1C(=O)CCC2 | inconclusive: 2.06 µM [activator, full curve, poor fit] | – |
| O=C(c1ccco1)N1CCN(Cc2cc(=O)oc3cc(O)ccc23)CC1 | inconclusive: 14.6 µM [falling, partial curve, poor fit] | – |
| CC(C)c1cc(C(=O)Nc2sc3c(c2C#N)CCC3)no1 | – | inactive: -11.7% |

Pulled by compound from the list above:

| Compound | Potency | activity change, negative = inhibition |
| --- | --- | --- |
| O=C(c1ccco1)N1CCN(Cc2cc(=O)oc3cc(O)ccc23)CC1 | inconclusive: 14.6 µM [falling, partial curve, poor fit] | – |
| COc1ccc2c(c1)C=C(CN1CCC(CO)(CCc3ccccc3)CC1)CO2 | – | inactive: 22.4% |
| Cn1c(/C(C#N)=C/c2ccc(-c3ccc(S(N)(=O)=O)cc3)o2)nc2ccccc21 | inconclusive: 7.31 µM [falling, partial curve, poor fit] | – |

Next part:

| Compound | Potency | activity change, negative = inhibition |
| --- | --- | --- |
| Cc1cccc(Cn2cc(S(=O)(=O)c3cccc(C)c3)c(=O)c3cc(F)c(N4CCOCC4)cc32)c1 | inconclusive: 29.1 µM [falling, single point] | – |
| COc1ccc2nc(C)cc(Nc3ccc(Cl)c(Cl)c3)c2c1 | inconclusive: 18.4 µM [falling, single point] | – |
| CC(C)(C)OC(=O)Cc1nnc(C(C(=O)OCc2ccccc2)c2ccccc2)o1 (stereo not given) | – | inactive: 13.3% |
| O=C(Nc1cccnc1)OC1CCCC1 | inconclusive: 16.4 µM [activator, single point] | – |
| Cc1cccc(NC(=S)NCCC(c2ccccc2)c2ccccc2)c1 | – | inactive: -20.3% |
| O=S(=O)(Nc1ccccn1)c1ccc(-n2cccn2)cc1 | inconclusive: 18.4 µM [falling, single point] | – |
| COc1cccc(-c2noc(COc3ccccc3Cl)n2)c1 | inconclusive: 20.6 µM [activator, partial curve] | – |
| COc1ccc(Br)cc1C(=O)Nc1ccc(N2CCN(S(C)(=O)=O)CC2)cc1 | active: 18.4 µM | – |
| CC(C)Oc1ccc(CCN=C(N)N=C(N)N)cc1Cl | inconclusive: 29.1 µM [falling, single point] | – |
| CC1CC1C(=O)OCC(=O)NNC(=O)COc1ccc(Br)cc1 (stereo not given) | inconclusive: 6.51 µM [activator, partial curve] | – |
| c1ccc(C(Cc2nc(-c3ccccn3)no2)c2ccccc2)cc1 | inconclusive: 18.4 µM [activator, single point] | – |
| COc1ccc2oc(=O)c(C(=O)Oc3ccc(NC(C)=O)cc3)cc2c1 | – | inactive: -4.11% |
| COc1cccc(-n2c(SCC(=O)Nc3cc(C)on3)nc3c([nH]c4ccccc43)c2=O)c1 | inconclusive: 8.2 µM [falling, partial curve, poor fit] | – |
| Cn1nc(C(F)(F)F)c2cc(NC(=O)OCc3ccc(F)cc3)sc21 | inconclusive: 23.1 µM [falling, single point] | – |
| Cc1ccc(-c2nc3c(c(SCC(=O)N4CCOCC4)n2)COC(C)(C)C3)cc1 | inconclusive: 0.517 µM [falling, partial curve, poor fit] | – |
| Cc1cc(C)cc(N(CCC#N)C(=O)CSC2=Nc3ccccc3C3CC=NN23)c1 (stereo not given) | active: 23.1 µM | – |
| COc1ccc(-c2onc(C)c2C)cc1S(=O)(=O)NCC1CCN(Cc2cc(C)ccc2C)CC1 | – | inactive: -15.7% |
| CC(=O)N[C@@H](Cc1c[nH]c2ccccc12)C(=O)OCC(=O)Nc1ccc(S(=O)(=O)N(C)C)cc1 | inconclusive: 29.1 µM [activator, single point] | – |
| Cc1cccc(N2CCN(S(=O)(=O)c3ccc4c(c3)CC(=O)N4C)CC2)c1C | inconclusive: 20.6 µM [falling, single point] | – |
| C=C(C)Cn1c(SCC(=O)N/N=C/c2c(O)ccc3ccccc23)nc2ccccc2c1=O | inconclusive: 20.6 µM [falling, single point] | – |
| COc1cc2c(cc1OC)C(c1ccc(-c3ccc(Cl)cc3Cl)o1)=NCC2 | inconclusive: 18.4 µM [falling, single point] | – |
